Primary screen of a compound library

Protein sequences, listed by entry. Tags and fused reporters are not part of them. Residues count along the entry.
UniProt P9WPC5, whole entry: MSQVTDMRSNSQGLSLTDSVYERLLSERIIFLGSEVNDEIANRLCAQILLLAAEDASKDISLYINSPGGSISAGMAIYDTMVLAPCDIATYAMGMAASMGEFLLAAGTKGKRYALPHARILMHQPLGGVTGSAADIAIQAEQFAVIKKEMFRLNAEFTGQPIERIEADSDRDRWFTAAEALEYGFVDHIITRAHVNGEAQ
UniProt P9WPC3, whole entry partner: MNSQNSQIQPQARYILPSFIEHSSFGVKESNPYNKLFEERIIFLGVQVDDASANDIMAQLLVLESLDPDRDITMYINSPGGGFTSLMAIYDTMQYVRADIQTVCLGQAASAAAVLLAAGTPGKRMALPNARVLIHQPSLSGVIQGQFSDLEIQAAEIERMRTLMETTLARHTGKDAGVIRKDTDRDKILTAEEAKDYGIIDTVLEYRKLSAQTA
UniProt P9WNZ1, whole entry: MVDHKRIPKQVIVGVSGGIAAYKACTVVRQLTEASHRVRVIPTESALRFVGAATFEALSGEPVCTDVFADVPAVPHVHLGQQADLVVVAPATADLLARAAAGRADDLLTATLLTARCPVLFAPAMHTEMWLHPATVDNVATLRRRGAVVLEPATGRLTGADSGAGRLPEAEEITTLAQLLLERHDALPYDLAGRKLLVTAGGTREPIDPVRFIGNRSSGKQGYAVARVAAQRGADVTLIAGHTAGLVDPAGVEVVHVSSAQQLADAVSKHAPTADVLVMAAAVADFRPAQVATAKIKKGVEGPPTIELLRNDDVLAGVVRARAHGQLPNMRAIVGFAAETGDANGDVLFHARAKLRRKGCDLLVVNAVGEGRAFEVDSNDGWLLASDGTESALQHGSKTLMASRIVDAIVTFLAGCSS
UniProt Q8IDJ8, 1-583: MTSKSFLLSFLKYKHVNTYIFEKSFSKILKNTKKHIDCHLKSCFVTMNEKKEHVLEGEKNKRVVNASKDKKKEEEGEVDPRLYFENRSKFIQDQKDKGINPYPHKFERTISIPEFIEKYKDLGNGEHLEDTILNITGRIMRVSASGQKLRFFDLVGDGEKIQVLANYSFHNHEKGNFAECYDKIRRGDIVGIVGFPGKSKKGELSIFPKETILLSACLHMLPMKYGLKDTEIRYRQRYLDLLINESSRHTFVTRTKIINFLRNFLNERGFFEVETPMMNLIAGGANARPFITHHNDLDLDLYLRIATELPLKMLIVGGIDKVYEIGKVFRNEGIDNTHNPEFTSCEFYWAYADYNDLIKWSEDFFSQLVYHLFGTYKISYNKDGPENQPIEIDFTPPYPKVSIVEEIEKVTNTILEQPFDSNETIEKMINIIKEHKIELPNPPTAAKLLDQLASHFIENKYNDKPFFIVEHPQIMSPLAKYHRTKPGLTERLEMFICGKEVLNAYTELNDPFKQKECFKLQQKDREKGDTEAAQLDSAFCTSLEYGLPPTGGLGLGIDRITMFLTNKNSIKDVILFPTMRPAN

Data taken from ChEMBL document CHEMBL3988442, “University of Dundee, Small-Polar-MMV Screening Library” (2021).

ClpP1P2: 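Protease assay of ClpP1P2, read by the AMC dye that it sets free. Target: ClpP1P2, Mycobacterium tuberculosis (UniProt P9WPC5 and UniProt P9WPC3). Compounds at 50 µM. Higher reads as stronger inhibition, judged from the few compounds that gave an IC50. Most other retested compounds had strongly negative values. Size under these conditions: about 69,000 compounds, about 10 of them at 50% or above in at least one test.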
CoaBC: 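Coenzyme A biosynthesis protein CoaBC, Mycobacterium tuberculosis (UniProt P9WNZ1). Enzyme assay of CoaBC with a phosphate dye (Biomol Green) read at 650 nm. Concentration: 30 µM. Higher reads as stronger inhibition, judged from the few compounds that gave an IC50. Most strong results did not repeat in a second test. Of about 67,000 compounds tested this way, about 40 (0.06%) reached 50% or more in at least one test.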
PfKRS1: 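Lysine-tRNA ligase, Plasmodium falciparum 3D7 (UniProt Q8IDJ8). Enzyme assay of the cytosolic lysyl-tRNA synthetase in 384-well plates, read by luminescence. Tested at 30 µM. Direction is inferred from only a few compounds that gave an IC50; most scored high, so higher reads as stronger inhibition. Size under these conditions: about 69,000 compounds, about 49 of them at 50% or above in at least one test.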

Values are the deposited “Percent Effect”, in %. How 0% and 100% were set is not recorded. Most values in the screen are low, and negative values occur. The compounds are a random part of those screened. Two or more numbers in one place are separate tests of the same structure; such repeats can differ widely.

{"compound": "OCc1cccc(OCc2ccon2)c1", "ClpP1P2": -13.02, "CoaBC": -1.132, "PfKRS1": 6.922}
{"compound": "NCc1cccc(-c2cccnc2C(=O)NCCCN2CCOCC2)c1", "ClpP1P2": -14.25, "CoaBC": 9.324, "PfKRS1": 1.663}
{"compound": "CCC(C)NC(=O)c1ccc(-c2ccco2)[nH]c1=O", "stereo": "centres undefined", "ClpP1P2": -184.9, "CoaBC": -16.94, "PfKRS1": 4.214}
{"compound": "Cc1cc(C(=O)N2CCC3(CCN3Cc3ccc(F)cc3)C2)no1", "stereo": "centres undefined", "ClpP1P2": -8.592, "CoaBC": 1.272, "PfKRS1": -0.39}
{"compound": "O=C([C@H]1CCCO1)N1CCc2ncc(CN3CCOCC3)n2CC1", "ClpP1P2": -9.828, "CoaBC": 0.75, "PfKRS1": 4.948}
{"compound": "Cc1nc2n(n1)CC(NCCCc1nc(-c3cccs3)no1)CC2", "stereo": "centres undefined", "ClpP1P2": 3.188, "PfKRS1": 3.274}
{"compound": "OC1(Cn2ccc3ncccc32)CCN(Cc2cccnc2)CC1", "ClpP1P2": -4.206, "CoaBC": 1.716, "PfKRS1": 4.623}
{"compound": "Cc1ccc(CNC(=O)c2nc3c(n2C)CCN(c2ncccn2)C3)o1", "ClpP1P2": 4.446, "CoaBC": 4.579, "PfKRS1": 3.287}
{"compound": "COCCOc1ccccc1C(=O)NCCN(C)C(C)C", "ClpP1P2": 22.99, "CoaBC": 6.335, "PfKRS1": -0.7301}
{"compound": "O=C(O)COc1ccc(CN2CCCC(CCc3ccccc3)C2)cc1", "stereo": "centres undefined", "ClpP1P2": 6.481, "CoaBC": "94.33 & 88.4", "PfKRS1": -1.514}
{"compound": "CCc1nc(NCCCn2cccn2)c2c(n1)c(C)nn2CC", "ClpP1P2": 18.5, "CoaBC": -1.386, "PfKRS1": -2.316}
{"compound": "Cc1ccc(C2COCCN2C(=O)c2ccc(F)c(F)c2)o1", "stereo": "centres undefined", "ClpP1P2": -6.932, "CoaBC": 3.306, "PfKRS1": 1.693}
{"compound": "Cc1nc(CN(C)C2CCN(Cc3ccc(C(N)=O)cc3)C2)no1", "stereo": "centres undefined", "ClpP1P2": -48.51, "CoaBC": 2.35, "PfKRS1": 1.084}
{"compound": "COc1ccc(OC)c(C2CCN(C(=O)[C@H]3CC[C@@H](O)CC3)C2)c1", "stereo": "some centres undefined", "ClpP1P2": -4.992, "CoaBC": -10.48, "PfKRS1": 2.107}
{"compound": "CSCC[C@H](NC(C)=O)c1nc(CC(C)C)n[nH]1", "ClpP1P2": -14.21, "CoaBC": 5.533, "PfKRS1": -3.088}
{"compound": "CN(CCCc1cnn(C)c1)Cc1cc2n(n1)CCCNC2", "ClpP1P2": 3.085, "CoaBC": -3.236, "PfKRS1": 1.864}
{"compound": "C[C@@H]1CN(C2CCN(c3ccccc3)CC2)CC[C@@]1(O)C1CCOCC1", "ClpP1P2": -4.548, "CoaBC": -1.58, "PfKRS1": 2.717}
{"compound": "Cc1ccc(-c2nc(CN3CCn4c(nnc4C4CC4)C3)co2)cc1", "ClpP1P2": -2.343, "CoaBC": 2.999, "PfKRS1": 4.438}
{"compound": "Cn1cc(CN2CCCC(n3c(=O)oc4ccccc43)C2)cn1", "stereo": "centres undefined", "ClpP1P2": -12.1, "CoaBC": -3.942, "PfKRS1": -1.935}
{"compound": "O=C(c1ccncc1F)N1CCc2ncnc(N3CCOCC3)c2CC1", "ClpP1P2": 3.684, "CoaBC": 2.03, "PfKRS1": -1.045}
{"compound": "Cn1ncc(NCc2cccc(COC(C)(C)C)c2)c(Cl)c1=O", "ClpP1P2": 0.8055, "CoaBC": 4.563, "PfKRS1": 4.821}
{"compound": "c1ccc(CCN2CC(n3cccn3)C2)nc1", "ClpP1P2": -5.487, "CoaBC": -1.654, "PfKRS1": 0.2069}
{"compound": "Cn1cc(CNC2CCc3c(ccc(=O)n3Cc3cccnc3)C2)cn1", "stereo": "centres undefined", "ClpP1P2": 5.664, "CoaBC": 2.104, "PfKRS1": 4.958}
{"compound": "COc1cccc(CCC(=O)N2CCCC(n3cc(C)cn3)C2)c1", "stereo": "centres undefined", "ClpP1P2": -7.813, "CoaBC": 0.5222, "PfKRS1": -2.758}
{"compound": "COc1ccc(CN[C@H]2CC[C@@]3(CCC(=O)N3)CC2)cc1", "ClpP1P2": -4.622, "CoaBC": 1.781, "PfKRS1": 4.359}
{"compound": "CNC(=O)c1ccc(C(=O)N2CCC(Nc3cccnn3)CC2)cn1", "ClpP1P2": -31.31, "CoaBC": 3.133, "PfKRS1": -0.2709}
{"compound": "CCn1ccnc1CN1CCN(CC(=O)NC(C2CC2)C2CC2)CC1", "ClpP1P2": -26.88, "CoaBC": -0.2558, "PfKRS1": -1.094}
{"compound": "COc1cc(N2CCCC(c3ncc[nH]3)C2)ncn1", "stereo": "centres undefined", "ClpP1P2": 0.8247, "CoaBC": 11.32, "PfKRS1": 1.275}
{"compound": "CC(C)N(C)Cc1cnc2n1CCN(C(=O)NC1CCCC1)C2", "ClpP1P2": -4.162, "CoaBC": 6.218, "PfKRS1": 0.3456}
{"compound": "CCN(CC)C(=O)CN(C)C(=O)c1ccc(-c2ccsc2)nc1C", "ClpP1P2": 3.599, "CoaBC": 0.7653, "PfKRS1": 0.7454}
{"compound": "CCn1nc(C)c(NC(=O)c2cc(NC(=O)C(C)C)n(C)n2)c1C", "ClpP1P2": 9.924, "CoaBC": -8.554, "PfKRS1": 7.042}
{"compound": "Cc1ncsc1CN1C[C@H](OCc2ccncc2)[C@H]2OCCC[C@H]21", "ClpP1P2": -2.655, "CoaBC": -6.075, "PfKRS1": 8.511}
{"compound": "c1csc(CN2CC(c3nc(-c4cnccn4)no3)C2)c1", "ClpP1P2": -0.2678, "CoaBC": -4.44, "PfKRS1": 7.82}
{"compound": "CC(c1nnc(-c2ccccc2)o1)N1CCc2cncnc2C1", "stereo": "centres undefined", "ClpP1P2": -0.2462, "CoaBC": 5.357, "PfKRS1": 1.428}

2 of the entries, repeated:

compound	ClpP1P2	CoaBC	PfKRS1
Cc1ncsc1CN1C[C@H](OCc2ccncc2)[C@H]2OCCC[C@H]21	-2.655	-6.075	8.511
CC(c1nnc(-c2ccccc2)o1)N1CCc2cncnc2C1 (centres undefined)	-0.2462	5.357	1.428